Measured values: US20220298038A1, “A METHOD FOR DISRUPTING BIOFILMS IN WASTEWATER SYSTEMS” (GRENOF PTY LTD, priority 2019, published 2022)

Test: Persistence of organic peroxy compound along rising main

## CC(=O)OO [Peracetic Acid, peroxyacetic acid]
  extent of rising main along which compound persists above the limit of detectability: ~5 km
High levels of reactive organic substrates (reactive COD)
  distance from dosing location within which compound falls below the limits of detectability: within only a kilometre
